Our source for the binding values is article PMC9187738.

Results are given in words; binding and its absence hold for the method and conditions named. Some binding calls cover weakened binding; strength is not graded here. For some of these results: Tags and fused reporters may be left off the sequences shown.

Assay [1] concerns the target T1, mouse mCherry-JUNO (mouse) (UniProt Q9EQF4).
T1 sequence: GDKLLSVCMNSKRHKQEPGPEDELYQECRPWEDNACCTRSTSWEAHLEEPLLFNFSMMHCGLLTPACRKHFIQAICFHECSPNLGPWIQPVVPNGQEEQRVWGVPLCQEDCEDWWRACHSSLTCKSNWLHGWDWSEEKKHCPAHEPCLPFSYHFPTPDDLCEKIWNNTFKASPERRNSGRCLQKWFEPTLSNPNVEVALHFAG
The assay can be described thus: live imaging-based adhesion molecule (LIAM) assay; BHK cells, non-inducible expression (cytomegalovirus promoter); separately transfected cells mixed in equal amounts 4 h after transfection, incubated 20 h, imaged every 6 min for 12 h at 40x, 37 °C, 5% CO2; read-outs: accumulation at the cell interface and translocation to the opposite cell, % of contacting cell pairs.

For assay [2], the target named is T2, mCherry-W62A JUNO (mouse mutant JUNO W62A) (mouse) (UniProt Q9EQF4).
T2 sequence: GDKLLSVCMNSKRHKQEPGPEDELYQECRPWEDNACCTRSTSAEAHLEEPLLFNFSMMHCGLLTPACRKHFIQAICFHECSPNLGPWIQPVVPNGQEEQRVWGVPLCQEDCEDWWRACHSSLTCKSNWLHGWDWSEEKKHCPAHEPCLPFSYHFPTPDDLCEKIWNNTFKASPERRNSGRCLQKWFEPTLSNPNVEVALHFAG
The assay is described as above.

Assay [3] addresses T3, mouse E-cadherin-GFP (mouse), P09803.
T3 chain: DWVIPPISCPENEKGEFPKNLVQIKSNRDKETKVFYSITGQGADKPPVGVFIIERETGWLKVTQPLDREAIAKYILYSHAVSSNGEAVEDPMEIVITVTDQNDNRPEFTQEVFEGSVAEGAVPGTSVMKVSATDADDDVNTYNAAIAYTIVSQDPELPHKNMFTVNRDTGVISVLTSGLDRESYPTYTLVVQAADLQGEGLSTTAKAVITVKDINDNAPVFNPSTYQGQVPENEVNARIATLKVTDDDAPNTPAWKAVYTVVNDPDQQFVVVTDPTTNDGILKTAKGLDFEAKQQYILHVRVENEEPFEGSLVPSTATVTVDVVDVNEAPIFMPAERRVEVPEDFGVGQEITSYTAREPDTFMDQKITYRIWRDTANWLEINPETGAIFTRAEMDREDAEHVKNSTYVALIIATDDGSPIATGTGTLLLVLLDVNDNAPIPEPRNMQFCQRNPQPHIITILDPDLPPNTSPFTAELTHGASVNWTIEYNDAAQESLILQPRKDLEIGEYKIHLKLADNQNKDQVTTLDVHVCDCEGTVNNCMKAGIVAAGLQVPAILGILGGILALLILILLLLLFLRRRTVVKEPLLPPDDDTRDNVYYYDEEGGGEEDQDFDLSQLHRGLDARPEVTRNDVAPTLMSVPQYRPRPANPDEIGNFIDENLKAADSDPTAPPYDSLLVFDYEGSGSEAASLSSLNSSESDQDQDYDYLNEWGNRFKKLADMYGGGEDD
The assay can be described thus: live imaging-based adhesion molecule (LIAM) assay; BHK cells expressing E-cadherin-GFP (no inducible system); time-lapse confocal imaging; accumulation at the contact interface of adjacent expressing cells. As to conditions: remark: other sources report otherwise.

B1: mouse SPACA6 (protein, UniProt E9Q8Q8 42-339)
chain: CLFCFTTYEERLRVCQLFVGREETKINLCRNELEGAFEDLKDMKINYDERSYLHDEFTQMTVSLQEKAARRREPFWLAFKDAAAKLKRTIEHLKKAPACIPPCGLQEVARLFHCSGCFSKLCDLPLDCPVQDMLVNRGDQALFSCIVAFELPESEITYSWKFVGGVRTKDVTYFRDMPGAHGYLARIRPVQPKHGGTFSCVILHDQRPLARLYFYLNVTGPPPPEDTELQVTFREVMNRTPAEPEMIQPWSPSLGELLTNPQALTLGNLFLLAATAALGSASVTLLVWLFFRWYLSGN
Regarding B1, in assay [1], the binding entry is on record as “no binding”.

B2: W148A IZUMO-Venus (mouse mutant IZUMO1 W148A) (protein, UniProt Q9D9J7 22-397)
chain: CIKCDQFVTDALKTFENTYLNDHLPHDIHKNVMRMVNHEVSSFGVVTSAEDSYLGAVDENTLEQATWSFLKDLKRITDSDLKGELFIKELLWMLRHQKDIFNNLARQFQKEVLCPNKCGVMSQTLIACLKCEKQLHICRKSLDCGERHIEVHRSEDLVLDCLLSWHRASKGLTDYSFYRVWENSSETLIAKGKEPYLTKSMVGPEDAGNYRCVLDTINQGHATVIRYDVTVLPPKHSEENQPPNIITQEEHETPVHVTPQTPPGQEPESELYPELHPELYPELIPTVAQNPEKKMKTRLLILLTLGFVVLVASIIISVLHFRKVSAKLKNASDEVKPTASGSKSDQSLSQQMGLKKASQADFNSDYSGDKSEATEN
In the case of B2, the binding entry in assay [1] is “no binding”.

B3: mouse IZUMO1-Venus (protein, UniProt Q9D9J7 22-397)
chain: CIKCDQFVTDALKTFENTYLNDHLPHDIHKNVMRMVNHEVSSFGVVTSAEDSYLGAVDENTLEQATWSFLKDLKRITDSDLKGELFIKELLWMLRHQKDIFNNLARQFQKEVLCPNKCGVMSQTLIWCLKCEKQLHICRKSLDCGERHIEVHRSEDLVLDCLLSWHRASKGLTDYSFYRVWENSSETLIAKGKEPYLTKSMVGPEDAGNYRCVLDTINQGHATVIRYDVTVLPPKHSEENQPPNIITQEEHETPVHVTPQTPPGQEPESELYPELHPELYPELIPTVAQNPEKKMKTRLLILLTLGFVVLVASIIISVLHFRKVSAKLKNASDEVKPTASGSKSDQSLSQQMGLKKASQADFNSDYSGDKSEATEN
Take B3: the binding result in assay [2] was “no binding”.

B4: mouse E-cadherin-GFP, P09803 157-884 (protein)
chain: DWVIPPISCPENEKGEFPKNLVQIKSNRDKETKVFYSITGQGADKPPVGVFIIERETGWLKVTQPLDREAIAKYILYSHAVSSNGEAVEDPMEIVITVTDQNDNRPEFTQEVFEGSVAEGAVPGTSVMKVSATDADDDVNTYNAAIAYTIVSQDPELPHKNMFTVNRDTGVISVLTSGLDRESYPTYTLVVQAADLQGEGLSTTAKAVITVKDINDNAPVFNPSTYQGQVPENEVNARIATLKVTDDDAPNTPAWKAVYTVVNDPDQQFVVVTDPTTNDGILKTAKGLDFEAKQQYILHVRVENEEPFEGSLVPSTATVTVDVVDVNEAPIFMPAERRVEVPEDFGVGQEITSYTAREPDTFMDQKITYRIWRDTANWLEINPETGAIFTRAEMDREDAEHVKNSTYVALIIATDDGSPIATGTGTLLLVLLDVNDNAPIPEPRNMQFCQRNPQPHIITILDPDLPPNTSPFTAELTHGASVNWTIEYNDAAQESLILQPRKDLEIGEYKIHLKLADNQNKDQVTTLDVHVCDCEGTVNNCMKAGIVAAGLQVPAILGILGGILALLILILLLLLFLRRRTVVKEPLLPPDDDTRDNVYYYDEEGGGEEDQDFDLSQLHRGLDARPEVTRNDVAPTLMSVPQYRPRPANPDEIGNFIDENLKAADSDPTAPPYDSLLVFDYEGSGSEAASLSSLNSSESDQDQDYDYLNEWGNRFKKLADMYGGGEDD
In the case of B4, in assay [3], the binding result is reported as “binds”.
